Reference: PubChem BioAssay AID2707 (National Center for Advancing Translational Sciences (NCATS), 2010)
This list was built around the results that the source calls inconclusive (neither active nor inactive); the mix of calls is not that of the screen. Potencies beside an inconclusive call are fits to weak or partial responses and may not hold up. Calls of active or inactive are those of the source.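 Rule for the calls: active = potency below 100 µM; inconclusive = dose-dependent response but potency above 100 µM; inactive = the rest.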

Chains of the proteins cited; added tags and fusions are not shown.
UniProt Q9F4F7, whole entry, looked up: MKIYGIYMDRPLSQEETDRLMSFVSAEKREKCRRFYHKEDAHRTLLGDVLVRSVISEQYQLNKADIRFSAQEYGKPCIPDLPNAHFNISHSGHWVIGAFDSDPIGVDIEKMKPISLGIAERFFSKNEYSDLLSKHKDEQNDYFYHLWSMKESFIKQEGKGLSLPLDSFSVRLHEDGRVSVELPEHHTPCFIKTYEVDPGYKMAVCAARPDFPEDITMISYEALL

Target: 4'-phosphopantetheinyl transferase ffp (Bacillus subtilis) (UniProt Q9F4F7)
Assay: Gel-Based Assay for Inhibitors of Bacillus subtilis Sfp phosphopantetheinyl transferase (PPTase)
Conditions: purified Sfp, gel-based phosphopantetheinylation read-out
Summary of the method: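 B. subtilis Sfp (26.6 nM in 1.33X enzyme mix, HEPES/MgCl2/NP-40/BSA pH 7.6) preincubated 10 min with compound, then Rhodamine-CoA and apo-ACP added; 30 min RT, urea/EDTA quench, native PAGE fluorescence bands, normalized to SCH202676, 4-parameter Hill fit.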

Row | SMILES | Potency | outcome
1 | O=C(Cc1ccccc1Nc1c(Cl)cccc1Cl)OCO/N=[N+](\[O-])N1CCCC1 | inconclusive: 167 µM [inhibitor] | 
2 | CN1CCc2cccc3c2[C@@H]1Cc1ccc(O)c(O)c1-3 | active: 55.6 µM | 
3 | CC(C)c1ccc(Cn2ccc3c4c(N)nc(NC5CC5)nc4ccc32)cc1 | inconclusive: 167 µM [inhibitor] | 
4 | N[C@@H](Cc1ccc(O)c(O)c1)C(=O)O | inconclusive: 224 µM [inhibitor] | 
5 | N[C@@H](CO)C(=O)NNCc1ccc(O)c(O)c1O | active: 18.5 µM | 
6 | Cc1ccc(Nc2nc(-c3sc(NC(=O)c4ccco4)nc3C)cs2)cc1 | inconclusive: 167 µM [inhibitor] | 
7 | O=C(CC(SCc1ccco1)c1ccc(O)cc1)c1cccs1 (centres undefined) |  | inactive
8 | COc1ccc(Br)cc1CNc1ccc(O)cc1 | inconclusive: 167 µM [inhibitor] | 
9 | CCC(CO)[n+]1c(C)cc(/C=C2\Sc3ccccc3N2Cc2ccccc2)cc1C (centres undefined) | inconclusive: 167 µM [inhibitor] | 
10 | Cc1cc(O)c(C2=Nc3ccccc3SC(c3ccc(Cl)cc3)C2)c(=O)o1 (centres undefined) | inconclusive: 167 µM [inhibitor] | 
11 | S=C(Nc1cccc(Cl)c1)Nc1cccc2cnccc12 | inconclusive: 167 µM [inhibitor] | 
12 | CC(C)[C@H](NC(=O)OC(C)(C)C)c1nnc(S(=O)(=O)Cc2c(F)cccc2Cl)o1 | inconclusive: 167 µM [inhibitor] | 
13 | CC=CC1=C(C(=O)O)N2C(=O)[C@H](NC(=O)[C@H](N)c3ccc(O)cc3)[C@@H]2SC1 | active: 18.5 µM | 
14 | COc1ccccc1/C=c1\sc2nc(-c3ccco3)nn2c1=O | inconclusive: 167 µM [inhibitor] | 
15 | CN1CCCC[C@@H]1CCN1c2ccccc2Sc2ccc(S(C)=O)cc21 (some centres undefined) | active: 18.5 µM | 
16 | O=C(CC(Nc1ccccc1Cl)C(=O)O)c1ccccc1 (centres undefined) | inconclusive: 167 µM [inhibitor] | 
17 | CO/N=C(\C(=O)N[C@@H]1C(=O)N2C(C(=O)[O-])=C(C[n+]3cccc4c3CCC4)CS[C@H]12)c1csc(N)n1 | active: 55.6 µM | 
18 | O=C(OCc1ccccc1)c1cccnc1 | inconclusive: 167 µM [inhibitor] | 
19 | O=C(CSc1nnc(SCC(=O)c2ccco2)s1)c1ccco1 | inconclusive: 167 µM [inhibitor] | 
20 | O=C(CSc1n[nH]c(-c2ccccc2O)n1)N1CCOCC1 |  | inactive
21 | Cc1nn(-c2ccccc2)c2nc(-c3ccco3)cc(C(=O)O)c12 | inconclusive: 167 µM [inhibitor] | 
22 | OC(C#Cc1ccccn1)c1cccs1 (centres undefined) |  | inactive
23 | Nc1c(C(=O)Nc2ccccc2)sc2nc(-c3cccnc3)ccc12 | inconclusive: 167 µM [inhibitor] | 
24 | O=C(/C=C/c1ccc(Br)o1)NCc1ccccc1 |  | inactive
25 | CCOC(=O)c1ccc(NC(=O)c2c(NC(=O)CCC(=O)O)sc3c2CCCCC3)cc1 |  | inactive
26 | COc1cc2nc(N3CCN(C(=O)C4CCCO4)CC3)nc(N)c2cc1OC (centres undefined) | inconclusive: 167 µM [inhibitor] | 
27 | CN(C)CCCN1c2ccccc2CCc2ccc(Cl)cc21 |  | inactive
28 | CC(=O)c1ccc(OC(=O)CCc2nc3ccccc3s2)cc1 | inconclusive: 167 µM [inhibitor] | 
29 | Cc1cccc2cc3c(nc12)SC(=NCC1CCCO1)N(Cc1ccco1)C3 (centres undefined) | active: 6.17 µM | 

In a second layout: results already given.
Row	SMILES	Potency	outcome
4	N[C@@H](Cc1ccc(O)c(O)c1)C(=O)O	inconclusive: 224 µM [inhibitor]	
5	N[C@@H](CO)C(=O)NNCc1ccc(O)c(O)c1O	active: 18.5 µM	
